Entries after “also recorded” stand apart in the source; their conditions may differ. Where two headings read alike, the source gives them in different places. Not every detail of the peptide structures is certain; ends, links or a residue may be inferred. Where a SMILES comes first, the peptide text is derived from it.
Tests used:
[1] = test system: osteochondral defect in goat stifle joint; format: in vivo; details: for histological healing outcome, average score: maximum score of 28
Procedure: In this study, the use of two different concentrations (See Table 1) of AC-100 in conjunction with a collagen sponge and a control with just the collagen sponge was implanted to evaluate the efficacy of AC-100 in repair of bone and cartilage (osteochondral) defects. The implants were intended to serve as an osteochondral allograft for cellular and matrix ingrowth. Efficacy to repair cartilage was assessed using gross and histological examination of the repair tissue. The primary objective was to determine whether AC-100 modifies and/or improves the healing of the osteochondral defect as compared to the study control group and the natural progression of historical controls using this model. This report describes the in vivo, gross and histological findings at the 12 and 24 weeks time points.
A single full-thickness chondral defects were created in the right hind leg stifle joint. The lesion site was located in the anterior medial femoral condyle. The basic surgical procedure was identical for all subjects. All surgeries were performed under strict asepsis. Peri-operative antibiotics and pre-anesthetic medication were used at the discretion of the surgeon. Anesthesia was induced with a mixture of ketamine-xylazine and maintained with a gaseous mix of Isoflurane and oxygen.
The point of marking and preparing the medial femoral condyle (MFC) was defined as 15 mm distal to the medial condyle groove junction and aligned with the medial crest of the trochlear groove. A 6 mm biopsy punch was used to slice through the cartilage outer layer and prevent tearing of the cartilage. The typical MFC defect was 6 mm in diameter and 6 mm in depth.
The cartilage defect was copiously flushed with sterile lactated Ringer's solution and blotted prior to application of the scaffold and test article. The prepared collagen sponge scaffold was implanted into the lesion site. A spatula was also used to seat further the sponge scaffold into the lesion site. The test article was then applied into the sponge scaffold filled lesion site per Sponsor's instructions. Depending on the group assigned to the animal, the appropriate test article was drawn up in a micropipette that was used to deliver the test article into the sponge scaffold within the lesion site and allowed to soak in for approximately three minutes.
Postoperative checks were made for any animal displaying signs of postoperative discomfort. Postoperative analgesics were administered to all animals during the immediate postoperative interval. Additionally, they were given if the animals display any signs of distress of discomfort. Further postoperative treatments consisted of three (3) weekly intra-articular injections (one injection per week under anesthesia for 3 weeks) into the operated knee of the appropriate test article for that study group after which the animals were allowed to recover. All treatments were recorded in the appropriate study documentation. The total postoperative time at final evaluation was either 12 weeks for groups 1A, 2A, and 3A or 24 weeks for groups 1B, 2B, and 3B.
Each animal received an injection of 0.5 mL of the appropriate test article into the operated knee joint at 1, 2 and 3 weeks post surgery.
Animals were humanely sacrificed at Day 84 (12 weeks) or Day 168 (24 weeks) postoperatively. Bodyweights were recorded immediately prior to sacrifice. Deep anesthesia was induced with a mixture of ketamine-xylazine and the subject exsanguinated according to the guidelines set forth by the AVMA Panel on Euthanasia (JAVMA, March, 2000).
A complete gross necropsy was conducted (see Table 2). Gross evaluation was performed on the heart, liver, lungs, kidneys, spleen, and popliteal lymph nodes for signs of any systemic toxicity from the implant material. Lymph nodes in close proximity to the joint were examined. The articulating surfaces opposing the defect sites were examined for any abnormal joint surface and if necessary stained with India ink to determine fibrillation. […]

[2] = test system: full thickness cartilage defect in goat medial femoral condyle; experiment: full-thickness chondral defect model ± microfracture in the goat knee, multiple intra-articular injections; format: in vivo

CC[C@H](C)[C@H](NC(=O)[C@H](CC(=O)O)NC(=O)[C@H](CC(N)=O)NC(=O)[C@H](CC(=O)O)NC(=O)CNC(=O)[C@H](CCCNC(=N)N)NC(=O)[C@H](CCC(=O)O)NC(=O)[C@H](CCC(N)=O)NC(=O)[C@H](CC(C)C)NC(=O)[C@H](CC(=O)O)NC(=O)[C@@H](N)[C@@H](C)O)C(=O)N[C@@H](CO)C(=O)N1CCC[C@H]1C(=O)N[C@@H](Cc1ccccc1)C(=O)N[C@@H](CO)C(=O)NCC(=O)N[C@@H](CC(=O)O)C(=O)NCC(=O)N[C@@H](CCC(N)=O)C(=O)N1CCC[C@H]1C(=O)N[C@@H](Cc1ccccc1)C(=O)N[C@@H](CCCCN)C(=O)N[C@@H](CC(=O)O)C(N)=O [AC-100] (H-TDLQERGDNDISPFSGDGQPFKD-NH2)
formation of cartilage, morphological data (FIG. 3) ([1]; 10 mg (4×2.5 mg) and 100 mg (4×25 mg) carried by collagen sponge, 12 and 24 weeks): stimulated the formation of cartilage
histological healing outcome, average score ([1]; 12 weeks, AC-100 Concentration A + collagen sponge): 13.5
histological healing outcome, average score ([1]; 12 weeks, AC-100 Concentration B + collagen sponge): 10.0
histological healing outcome, average score ([1]; 24 weeks, AC-100 Concentration A + collagen sponge): 20.3
histological healing outcome, average score ([1]; 24 weeks, AC-100 Concentration B + collagen sponge): 15.7
gross area of repair tissue relative to the total lesion area ([1]; 24 weeks, one animal (Goat 243 pink, Group 3B)): 50%
gross response (normalized gross morphology score) ([1]; Groups 3A and 3B, low dose (2.5 mg), 12 and 24 weeks): next best
improvement of cartilage formation vs Control group ([1]; high concentration group (4×25 mg AC-100 and collagen sponge)): statistically significant improvements
activities on cartilage formation, dose dependence ([1]; two different doses): dose dependent activities on cartilage formation
cartilage formation compared with saline group of the microfracture experiment ([2]; no microfracture, 25 mg and 125 mg dose groups): more cartilage formation than the saline group of the microfracture experiment
healing of non-microfractured defects ([2]; no microfracture, intra-articular 5, 25, 125 mg per dose, day 42): significantly improved the healing
histology scores (FIG. 6) ([2]; series of intra-articular injections 5, 25, 125 mg, 6 weeks): dose-dependently increase the formation of cartilage repair tissue
gross tissue repair scores (FIG. 5) ([2]; series of intra-articular injections 5, 25, 125 mg, after 6 weeks): dose-dependently stimulates growth of new cartilage
healing of microfractured defects ([2]; with microfracture, intra-articular 5, 25, 125 mg per dose, day 42): significantly improved the healing; also recorded: less significant

— patent publication US20090074876A1, “PEPTIDE COMPOSITION AND A METHOD OF PROMOTING CARTILAGE FORMATION” (Acologix, Inc., priority 2007, published 2009)
